Assay results published in the supplement of paper PMC3334620.
Whole data set: some 33,000 sequences, median “E-score (-0.5 to 0.5)” near -0.0034, cut for the highest 2% near 0.25. The list shows a part of the results.

Biological target: T1, Yap3 (UniProt P38749)
T1 sequence: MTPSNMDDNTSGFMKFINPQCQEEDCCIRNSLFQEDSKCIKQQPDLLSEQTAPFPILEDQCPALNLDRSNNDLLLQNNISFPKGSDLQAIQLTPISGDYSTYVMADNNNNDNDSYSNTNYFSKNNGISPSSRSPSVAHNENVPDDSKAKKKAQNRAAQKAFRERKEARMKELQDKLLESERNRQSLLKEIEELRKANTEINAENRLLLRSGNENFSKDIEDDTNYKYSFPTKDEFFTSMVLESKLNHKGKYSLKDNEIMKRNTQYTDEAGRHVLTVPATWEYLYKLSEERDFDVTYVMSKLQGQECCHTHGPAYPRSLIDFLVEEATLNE
Experiment: PBM E-score (8-mer binding enrichment) (E-score (-0.5 to 0.5)); higher = stronger / more preferred TF binding
Settings: protein concentration: 100 nM; construct: GST-full length
Method: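 Universal 'all 10-mer' protein binding microarrays (Agilent AMADID 015681) probed with GST-tagged S. cerevisiae TFs (full-length or DBD) made by in vitro transcription/translation (PURExpress), about 100-200 nM. Bound TF was detected with fluorescent anti-GST. Each ungapped 8-mer (which stands for itself and its reverse complement) is scored by the PBM enrichment score (E-score), a modified Wilcoxon-Mann-Whitney statistic from -0.5 to +0.5, computed with the Universal PBM Analysis Suite. Scale: above 0.35 generally sequence-specific binding.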

Sequence	PBM E-score
CCTTGTTA	-0.00354
ATACCATC	0.119
GCGGAAAC	-0.153
ATAATCGG	0.209
GAGCGATA	-0.0584
ACAGTGCG	-0.0324
ACTCCTCG	0.0333
CTAGTTGC	0.0394
GCGCACAA	0.141
AAGAATAT	0.0717
GACTACAA	-0.0468
ACGAGCGA	0.0274
ATCTCGAC	-0.0052
CGCAGATA	-0.0505
GAATGGCA	-0.0644
CAGGAGGA	-0.292
GTATCTAA	0.18
TCCGTACA	0.149
TAACGAAA	0.211
AGGCAGTA	-0.121
GGCAACAC	0.0316
GAACATAC	0.122
ACAAAAAC	0.143
CCCAATCG	0.0535
ACCAGCGT	-0.181

Sequence	PBM E-score
CACAAGCA	-0.111
GGGCAACA	0.0486
ATTCAAGG	-0.0344
AACTGAGA	0.018
GATGATAA	0.207
CCCCCGAG	-0.315
AGGCCCGG	-0.402
AGAAGTTA	0.0328
ATCATGGG	-0.0421
AGCGTACA	-0.0567
ATCACGCG	0.234
AAGGGCCC	-0.131
ATACTAGG	0.0668
AAAAGGTG	0.0429
GGGGTTAA	-0.0228
CGGACGGA	-0.113
AGTGACGA	-0.0265
AGAGACAT	0.076
AGAGTTTA	0.106
CACGTCCG	-0.0921
GATCATCC	-0.105
CCCGCACC	-0.15
ACAATTAG	-0.0417
AACCGGAT	0.13
ATGTTCCG	-0.00499

Sequence	PBM E-score
AGCTGGAT	-0.0595
CTTATACA	-0.0253
CTGATTTA	0.14
ACAAGGCC	-0.187
CTCAAATA	0.0822
GGTAAGAC	-0.109
GTAGCACA	-0.0421
GAGTGTAC	-0.0383
ACCAATCC	0.0692
CCTTGAAC	-0.0978
GACACTGA	0.0328
AAACTGGT	0.102
CTAATAAC	0.15
AGTATAGG	0.0414
CATGCAAC	0.089
AAAAGACC	-0.0384
CCAGCGAC	-0.0681
CTTGCATC	-0.118
ATGCCGCC	-0.0943
CAAGGCTA	-0.014
ACATCCTA	0.0583
AGCGACTA	-0.0433
CTCGCGCC	-0.102
AATGCGTA	0.0711
GTGCGTGA	-0.0199

Sequence	PBM E-score
ACTCTTTA	-0.0662
ACCCAGGT	-0.28
AGGTTAGG	0.148
AACAAAAA	0.307
TAGCACCA	0.0413
GCGAGTCA	-0.0691
CGCAACTC	0.0614
ACTGCGTC	-0.102
ACTCGTTC	-0.0576
ATCGTCGG	-0.0703
CTTGCGAA	0.188
GAACGCAA	0.0614
ACGGAAAT	0.323
CACTGTGG	-0.106
TAGACTAA	-0.0379
AGGAGATG	0.0415
GCACATCA	-0.0379
GCAGCAGC	-0.149
ACGACGCG	-0.0116
ACGTACAG	0.0953
ATTCAATC	0.0991
GTTCCAGA	0.0899
CGTTGATA	0.204
GGGCCAAA	-0.00772
ACACCTGG	-0.152

Sequence	PBM E-score
CGATGGGA	-0.0412
CCAGGGAA	-0.188
GTGTCACA	0.114
ACGTTACC	-0.0647
TGGGTTAA	-0.0447
GGTCAATA	0.208
ATGGTTCG	0.145
GAAGGTCC	-0.172
GTTCTCGA	-0.0521
AGGACGTG	-0.15
AATTAATT	0.211
CTAGTGTC	0.00568
ACGTGAGA	0.011
CTGGATAA	0.0474
GCTTTTTA	0.102
ACTTATGA	0.18
AGAGAGTG	-0.114
ACCTTGGA	-0.166
AAAGGTCC	-0.0315
ATCCGGGC	-0.209
AATCCCCG	-0.111
GTTCGATA	0.155
TAAGTCGA	-0.00297
AGGCCCCC	-0.415
AACCGACG	0.0843

Sequence	PBM E-score
AAACCATC	0.107
CCCCAATA	-0.0168
GAGTTGGC	-0.0517
AGTAAGGC	0.12
CCGGAAGA	-0.0592
ACCACGCA	-0.168
CATACGCC	-0.00203
AGTGACTC	-0.109
AGTTCTAA	-0.0287
ATCAGTGC	-0.034
CTGAGAGA	-0.0731
ATGAAGTG	0.0583
GTAACCGA	0.0998
ACGGGTAG	-0.0943
CGACAGGC	-0.157
ACCTCCAG	-0.208
GTAATTCA	0.177
GCCATGAC	-0.0475
AAGCTATC	0.072
AAAAGCGT	0.0246
CAGGAACG	0.00304
ATGTACGA	0.156
CATATGCC	0.105
GCGGATCA	-0.145
TCTCACCA	0.0245

Sequence	PBM E-score
AGATAACT	0.0265
ATTTGCCA	-0.0197
AACACGCG	0.0861
AGCGTAAA	0.0656
ATGCTAAA	0.062
CAAAAATC	0.051
CCACAGCA	-0.113
ACCGCAAT	0.115
CATCTTGC	0.0712
AGCGCTCC	-0.032
GGAGCACA	0.0175
ATGGTGTA	0.139
GGTGCGTA	-0.15
AAAATTTG	0.0972
AGGATTCA	-0.00455
TACTGTCA	0.0947
CAACAATA	0.159
ACCCCCCT	-0.454
CGCCTAAC	0.0468
CTGGAGTC	-0.228
CTCCAAGA	-0.12
CTACCGAA	-0.146
CCGGTTAG	-0.111
ACCCTCAT	-0.187
AGTACCAC	0.0292

Shown bar-delimited: part of the list above.
Sequence | PBM E-score
TACTGTCA | 0.0947
CAACAATA | 0.159

Further records follow.

Sequence	PBM E-score
CGGCGCAG	-0.094
GCTAGTGA	-0.0229
CACGCATC	-0.0655
GCCGATAC	-0.0723
CGAAATGC	0.138
TAACAGGA	0.195
AACGAGTG	-0.0979
ATACTCCG	0.0742
AGTTAGTC	0.0694
ACGCAAGT	-0.0875
AGGAATGA	0.0283
GTGCGACA	-0.0998
CACTTCCG	0.0806
CCACTCGA	0.00136
AACATTGA	0.121
CGTGAGAA	-0.0738
CGTATCGA	-0.0593
CGTGGGCA	-0.226
CATGGCAC	-0.12
CGCGGGAC	-0.00314
ACCCTCGT	-0.041
GGCTAGTA	0.094
AGTTAGGA	0.0358
ACTTCCCG	-0.0663
ACGTATAC	0.155

Another view of some results above:
Sequence,PBM E-score
CGAAATGC,0.138
ATACTCCG,0.0742
AACATTGA,0.121
CGTATCGA,-0.0593
CGTGGGCA,-0.226
CGCGGGAC,-0.00314

Later entries:

Sequence	PBM E-score
CTTTCCAC	0.0879
CATGGTAA	0.144
AATTGCGC	0.231
GAGCGCTC	-0.0353
ATTTATTG	0.0964
ATACCGCG	0.187
ATAGAAAG	0.00085
GTTGGACA	0.0869
AGTCGGAC	-0.0202
TACTATGA	0.189
AAAGTTAA	0.228
CAAGTTGA	-0.00801
GACCATCA	0.00881
CTGCCGCC	-0.335
GTTGCCTA	0.0281
ATTGTGTC	0.158
CAATTCTC	-0.0124
GATCTCGC	0.0469
AACGGCAG	-0.0518

Part of the list above, set out differently:

| Sequence | PBM E-score |
| --- | --- |
| TACTATGA | 0.189 |
| ATTGTGTC | 0.158 |
